Reference: PubChem BioAssay AID1259254 (NCATS, 2017)
Aim: 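Finding genes that stop cells copying their DNA twice in one cycle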 (primary screen). System: human HCT116 colorectal cancer cells. Reagent: single siRNA against human genes. Timing: 3 days. Measured: 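Imaged Hoechst DNA stain sorts each cell into a cycle phase by DNA amount; per plate, G2 fraction set to 0% for non-targeting and 100% for GMNN siRNA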. Reading the numbers: G2 robust z-score and G2 cells, % of GMNN control: higher = more G2 cells, more excess DNA replication; raw share of cells in G2: higher = larger share of cells with G2 DNA content. Rule for the call: 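An siRNA counts as active if its G2 robust z-score lies at least 5 MADs above the screen median; here such calls match roughly 38% of GMNN control or more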.
Here is one part, drawn at random, of about 59,000 deposited reagents. About 1,550 of them (2.6%) were called active. 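G2 share is only a proxy for re-replication; each gene was hit by three separate siRNAs, and active genes were retested.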 Raw values are not corrected between plates. Reagents against one gene are numbered here. No sequences are given here. Not given: the amount of reagent.

target gene | reagent | G2 robust z-score | G2 cells, % of GMNN control | raw share of cells in G2 (%) | Outcome
AMMECR1 | 1 | -1.01 | -4.14 | 3.46 | inactive
AMMECR1 | 2 | -0.143 | 1.96 | 4.76 | inactive
AMMECR1 | 3 | 0.785 | 8.49 | 6.5 | inactive
GTF2IP3 | 1 | -0.336 | 0.601 | 4 | inactive
GTF2IP3 | 2 | 2.04 | 17.3 | 9.65 | inactive
GTF2IP3 | 3 | -0.196 | 1.59 | 3.55 | inactive
POP1 | 1 | -0.348 | 0.52 | 5.19 | inactive
POP1 | 2 | 2.43 | 20.1 | 12.4 | inactive
POP1 | 3 | 5.39 | 40.9 | 18.5 | active
TBC1D25 | 1 | 3.46 | 27.3 | 15.8 | inactive
TBC1D25 | 2 | 0.121 | 3.82 | 4.5 | inactive
TBC1D25 | 3 | 0.0605 | 3.39 | 6.49 | inactive

Next part, starting with the last 3 of the part before.
target gene | reagent | G2 robust z-score | G2 cells, % of GMNN control | raw share of cells in G2 (%) | Outcome
TBC1D25 | 1 | 3.46 | 27.3 | 15.8 | inactive
TBC1D25 | 2 | 0.121 | 3.82 | 4.5 | inactive
TBC1D25 | 3 | 0.0605 | 3.39 | 6.49 | inactive
TMX2 | 1 | 0.255 | 4.76 | 5.63 | inactive
TMX2 | 2 | 0.785 | 8.49 | 9.8 | inactive
TMX2 | 3 | 0.0437 | 3.27 | 5.45 | inactive
BBS4 | 1 | 1.29 | 12 | 8.81 | inactive
BBS4 | 2 | -0.0401 | 2.69 | 6.03 | inactive
BBS4 | 3 | -0.696 | -1.93 | 3.27 | inactive
EIF2D | 1 | 1.39 | 12.8 | 9.88 | inactive
EIF2D | 2 | -1.2 | -5.47 | 3.18 | inactive
EIF2D | 3 | -0.138 | 2 | 4.37 | inactive
EN1 | 1 | 1.02 | 10.2 | 8.93 | inactive
EN1 | 2 | -0.539 | -0.823 | 4.95 | inactive
EN1 | 3 | 1.21 | 11.5 | 7.75 | inactive
RPL32P19 | 1 | -0.015 | 2.86 | 4.86 | inactive
RPL32P19 | 2 | -0.331 | 0.637 | 3.46 | inactive
RPL32P19 | 3 | -0.225 | 1.38 | 3.48 | inactive
P4HA3 | 1 | -1.23 | -5.66 | 2.63 | inactive
P4HA3 | 2 | -0.495 | -0.515 | 5.71 | inactive
P4HA3 | 3 | -0.039 | 2.69 | 5.83 | inactive
